This is an account of results in US20030008845A1, “Conjugated nonadecadienoic acid compositions” (priority 2001, published 2003).

A short description of the data set: Effects of CNA and CLA on body composition (diet feeding). The class given is in vivo. The settings on record: female ICR mice, 0.3% in diet, 2 weeks. An excerpt:
Female ICR mice (4-week-old) and semi-purified diets (TD94060, 99% basal mix) were purchased from Harlan Sprague Dawley (Madison, Wis.) and Harlan Teklad (Madison, Wis.), respectively. CLA was obtained from Natural Lipids Ltd AS, Hovdebygda, Norway; its composition was 88.7% CLA (c9, t11/t9, c11, 41.9%; t10, c12, 43.5%; t9, t11/10, t12, 1.5%; others, 1.8%) with the remainder as oleic acid, 5.6%; palmitic acid, 1.4%; and linoleic acid, 0.5%. CNA was kindly provided by the US Food and Drug Administration; it was 98.6% CNA (c10, t12, 42.3%; t11, c13, 48.0%; t10, t12/t11, t13, 5.1%; others, 3.2%) with the remainder as unreacted NA. CLA or CNA was added to diets at the expense of corn oil to maintain 5.5% fat. Diet was stored at −20° C. until use. Mice were housed individually in a windowless room with a 12-h light-dark cycle in strict accordance to guidelines established by the Research Animal Resources Center of University of Wisconsin-Madison. Diet and water, available ad libitum, were freshly provided three times per week.
After a 5 day adaptation period, mice were randomly separated into 3 groups and fed control diet, diet supplemented with 0.3% CLA, or diet supplemented with 0.3% CNA for 2 weeks. 0.3% of diet CLA is a sub-optimal dose for CLA's effects on body composition.
Results are mean±S.E. (n=6).

Take “Conjugated linoleic acid [CLA, reference compound]”: the “total feed intake per group” value was found to be 51.0 g. To conjugated nonadecadienoic acid [CNA] belongs 47.1 g.
